# Several values for one entry are separate records, joined by “and”; a condition that tells them apart may be missing. Equal entries are not always repeated. Hit rate of the full screen: of about 300,000 compounds, about 3,700 (1.2%) were called active. Inconclusive results, whose numbers are uncertain, are shown with a selection of clear calls. Calls come from the whole dose curve; tested in HEK293 cells. A potency beside an inconclusive call is a rough fit, not a confirmed value.
# Test: qHTS for Inhibitors of binding or entry into cells for Lassa Virus; note: nearly all actives have a fitted effect of over 50% in size
# Settings: Lassa virus pseudotype entry inhibition, cell reporter; series mostly up to 37.9 µM
# Potency is the fitted concentration of half-maximal effect.
row,SMILES,Potency
1,CC(C)OC(=O)c1ccc(NCc2cc(O)ccc2O)cc1,active: 12.6 µM
2,COc1ccc(C(=O)C(C)C(C)=O)c(OCc2ccccc2)c1OC (stereo unspecified),"inconclusive: 12.6 µM [activator, single point]"
3,CC(=O)c1c[nH]c(C(=O)NCC2CCCO2)c1 (stereo unspecified),inactive
4,Nn1c(SCc2ccc(F)cc2)nnc1-c1ccccn1,"inconclusive: 11.2 µM [activator, single point]"
5,CC(Oc1ccccc1)C(=O)Nc1ccc(F)c(S(=O)(=O)N2CCOCC2)c1 (stereo unspecified),inactive
6,COc1ccccc1N(CC(=O)NC1CCCC1)S(=O)(=O)c1ccc(C)cc1,"inconclusive: 7.94 µM [inhibitor, partial curve, poor fit]"
7,O=C(/C(=C(\O)c1ccccc1)c1nc2ccccc2[nH]1)c1ccccc1,"inconclusive: 7.08 µM [inhibitor, full curve, poor fit]"
8,CCC(C)NCCCCOc1ccc(Cl)cc1C (stereo unspecified),"inconclusive: 18.4 µM [inhibitor, single point]"
9,CCN1CCN(C(=O)c2nn(-c3ccc(OC)cc3)c(=O)c3c2c2ccccc2n3C)CC1,inactive
10,CC(=O)c1sc2nc(-c3ccc(C)cc3)c3c(c2c1N)CCCC3,"inconclusive: 11.2 µM [inhibitor, single point]"
11,O=C(CN1C(=O)COc2ccc(S(=O)(=O)NC3CCCC3)cc21)NCc1ccccc1Cl,inactive
12,COc1ccc(-c2onc(C)c2-c2ccc(C(=O)OC(C)C)o2)c(O)c1,"inconclusive: 8.91 µM [inhibitor, partial curve]"
13,CC(=O)Nc1ccc(/C(C)=N/Nc2nc(Nc3cccc4ccccc34)nc(N3CCOCC3)n2)cc1,"inconclusive: 20.6 µM [inhibitor, single point]"
14,O=C(Nc1ccc2oc(-c3ccccc3)nc2c1)c1cc(-n2cnnc2)ccc1Cl,"inconclusive: 32.6 µM [inhibitor, single point]"
15,CCOC(=O)c1cccc(NC(=O)c2cc(C)nc3c2c(C)nn3-c2ccc(C)cc2)c1,inactive
16,CCOc1ccccc1/C=C(\C#N)C1=CCCC1,"inconclusive: 8.91 µM [activator, partial curve, poor fit]"
17,Cc1c(Cl)cccc1NC(=O)COC(=O)c1c2c(nc3ccccc13)CCN(Cc1ccccc1)C2,"inconclusive: 11.2 µM [inhibitor, partial curve, poor fit]"
18,CCOc1cc(NC(=S)NCC2CCCO2)c(OCC)cc1NC(=O)c1cccc(C)c1 (stereo unspecified),"inconclusive: 0.164 µM [inhibitor, full curve, poor fit]"
19,COc1ccc(/C=N/OCC(=O)N2CCCC2)c(OC)c1,"inconclusive: 6.31 µM [activator, single point]"
20,O=C(O)c1cccc(OCc2ccccc2Cl)c1,"inconclusive: 29.1 µM [inhibitor, single point]"
21,COc1ccc([N+](=O)[O-])cc1NC(=O)COC(=O)/C=C/c1ccco1,"inconclusive: 11.2 µM [activator, partial curve, poor fit]"
22,O=[N+]([O-])c1cc(-c2ccc(/C=N\n3cnnc3)o2)cc([N+](=O)[O-])c1,"inconclusive: 1.26 µM [inhibitor, single point]"

# In the list so far, these contain a carbonyl joined to an NH by a bond outside any ring:
row,SMILES,Potency
3,CC(=O)c1c[nH]c(C(=O)NCC2CCCO2)c1 (stereo unspecified),inactive
5,CC(Oc1ccccc1)C(=O)Nc1ccc(F)c(S(=O)(=O)N2CCOCC2)c1 (stereo unspecified),inactive
6,COc1ccccc1N(CC(=O)NC1CCCC1)S(=O)(=O)c1ccc(C)cc1,"inconclusive: 7.94 µM [inhibitor, partial curve, poor fit]"
11,O=C(CN1C(=O)COc2ccc(S(=O)(=O)NC3CCCC3)cc21)NCc1ccccc1Cl,inactive
13,CC(=O)Nc1ccc(/C(C)=N/Nc2nc(Nc3cccc4ccccc34)nc(N3CCOCC3)n2)cc1,"inconclusive: 20.6 µM [inhibitor, single point]"
14,O=C(Nc1ccc2oc(-c3ccccc3)nc2c1)c1cc(-n2cnnc2)ccc1Cl,"inconclusive: 32.6 µM [inhibitor, single point]"
15,CCOC(=O)c1cccc(NC(=O)c2cc(C)nc3c2c(C)nn3-c2ccc(C)cc2)c1,inactive
17,Cc1c(Cl)cccc1NC(=O)COC(=O)c1c2c(nc3ccccc13)CCN(Cc1ccccc1)C2,"inconclusive: 11.2 µM [inhibitor, partial curve, poor fit]"
18,CCOc1cc(NC(=S)NCC2CCCO2)c(OCC)cc1NC(=O)c1cccc(C)c1 (stereo unspecified),"inconclusive: 0.164 µM [inhibitor, full curve, poor fit]"
21,COc1ccc([N+](=O)[O-])cc1NC(=O)COC(=O)/C=C/c1ccco1,"inconclusive: 11.2 µM [activator, partial curve, poor fit]"

# Arranged by formula weight (descending): part of the list above.
row,SMILES,Potency
13,CC(=O)Nc1ccc(/C(C)=N/Nc2nc(Nc3cccc4ccccc34)nc(N3CCOCC3)n2)cc1,"inconclusive: 20.6 µM [inhibitor, single point]"
22,O=[N+]([O-])c1cc(-c2ccc(/C=N\n3cnnc3)o2)cc([N+](=O)[O-])c1,"inconclusive: 1.26 µM [inhibitor, single point]"
1,CC(C)OC(=O)c1ccc(NCc2cc(O)ccc2O)cc1,active: 12.6 µM

# Additional entries:

row,SMILES,Potency
1,COc1ccc(CC(=O)OCC(=O)NCc2ccccc2Cl)cc1,inactive
2,CCN(CC(=O)Nc1ccc(C)c(S(=O)(=O)N2CCOCC2)c1)Cc1ccccc1,"inconclusive: 20 µM [inhibitor, partial curve, poor fit]"
3,O=C(CSc1ccc(-c2ccccc2)nn1)N1CCOCC1,inactive
4,CCCCNC(=S)N/N=C/c1cc(C)ccc1C,"inconclusive: 7.31 µM [inhibitor, partial curve, poor fit]"
5,COc1ccc(-n2nc(C(=O)NCC(=O)NC3CCCC(C)C3C)c3ccccc3c2=O)c(OC)c1 (stereo unspecified),"inconclusive: 5.62 µM [activator, single point]"
6,CC(C)(C)c1ccc(NC(=O)NCc2ccco2)cc1,"inconclusive: 20.6 µM [inhibitor, single point]"
7,COc1ccc(C2N3CC(C)(C)CN23)cc1 (stereo unspecified),"inconclusive: 1.16 µM [activator, full curve, poor fit]"
8,O=c1c2sccc2nc(SCc2cc(=O)n3cc(Br)ccc3n2)n1Cc1ccccn1,inactive
9,C/C(=N\NC(=O)c1ccc(NS(=O)(=O)c2cccs2)cc1)c1ccc2ccccc2c1,"inconclusive: 35.5 µM [inhibitor, single point]"
10,COc1ccc(NC(=O)C2CCCN(S(C)(=O)=O)C2)c(OC)c1 (stereo unspecified),"inconclusive: 12.6 µM [activator, partial curve, poor fit]"
11,Cc1nc(-c2ccccc2)nc(Cl)c1Cl,inactive
12,CCOC(=O)c1c(C)c(C(=O)Nc2ccc3c(c2)OCCO3)c(C)n1CC,"inconclusive: 7.3 µM [inhibitor, partial curve, poor fit]"
13,Cc1ccccc1OCCSc1nnc(-c2cccs2)o1,"inconclusive: 22.4 µM [activator, single point]"
14,Cc1ccnc(NS(=O)(=O)c2ccc(NC(=O)CN3C(=O)c4ccccc4S3(=O)=O)cc2)n1,"inconclusive: 1.26 µM [inhibitor, single point]"
15,O=C(CCSc1ccccc1)N1CCN(c2ccccc2F)CC1,"inconclusive: 7.08 µM [inhibitor, partial curve, poor fit]"
16,Cc1cc(C)c2oc(-c3ccc(C)c(NC(=S)NC(=O)/C=C/c4ccco4)c3)nc2c1,"inconclusive: 1.26 µM [activator, single point]"
17,COc1ccccc1OCC(=O)NCCS(=O)(=O)N1CCN(c2ccccc2OC)CC1,inactive
18,COc1ccc(C(=O)CCc2ccccc2O)c(OC)c1,"inconclusive: 6.31 µM [inhibitor, single point]"
19,COc1ccc(C(=O)NC(=O)CSc2nnc(-c3ccco3)n2-c2ccccc2)cc1,"inconclusive: 0.316 µM [activator, partial curve, poor fit]"
20,COc1ccc(C(CNC(=O)CNC(=O)c2ccccc2Cl)N2CCCC2)cc1 (stereo unspecified),inactive
21,CCCCN(C)C(=O)CSc1nc(NCc2ccc(OC)cc2)c2ccccc2n1,"inconclusive: 9.2 µM [inhibitor, single point]"
22,Cc1cccc(C)c1NC(=O)CCCSc1nnc(-c2ccc(Cl)cc2)n1-c1ccccc1,"inconclusive: 11.2 µM [inhibitor, partial curve]"

row,SMILES,Potency
1,O=C(C1=NNCC1c1ccccc1)C1OC1c1ccccc1 (stereo unspecified),"inconclusive: 35.5 µM [inhibitor, partial curve, poor fit]"
2,CCOC(=O)NC(=O)C(/C=N/c1sccc1C(=O)OC)=C(\C)O,"inconclusive: 12.6 µM [inhibitor, single point]"
3,COc1ccccc1CC(=O)Nc1ccc2c(c1)OC1(CCCC1)O2,inactive
4,O=c1cc(-c2ccccc2)nc(N2CCN(Cc3ccccc3)CC2)[nH]1,"inconclusive: 1.12 µM [inhibitor, full curve, poor fit]"
5,CCOc1ccc(-c2cc(C(=O)N3CCN(c4ccccn4)CC3)c3ccccc3n2)cc1,"inconclusive: 7.3 µM [inhibitor, partial curve, poor fit]"
6,COc1ccc(NC(=O)c2ccc(Cc3ccc(C)cc3)o2)cc1,"inconclusive: 7.08 µM [inhibitor, partial curve, poor fit]"
7,COc1ccc(CCNC(=O)CN(c2ccccc2)S(=O)(=O)N(C)C)cc1,inactive
8,COc1ccc(C2Nc3ccccc3C(=O)N2Cc2ccco2)cc1COc1ccc(NC(C)=O)cc1 (stereo unspecified),"inconclusive: 29.1 µM [inhibitor, single point]"
9,CCOC(=O)c1c(C)[nH]c(C)c1S(=O)(=O)N1CCCC(C(=O)N2CCN(c3cccc(Cl)c3)CC2)C1 (stereo unspecified),"inconclusive: 35.5 µM [inhibitor, single point]"
10,COc1ccc(-c2cc(C3CCN(c4cc(Cl)nc(N)n4)CC3)[nH]n2)cc1,"inconclusive: 11.6 µM [inhibitor, partial curve]"
11,COc1ccccc1C(=O)Nc1ccc(-c2cc(C(F)(F)F)nn2-c2ccccc2)cc1,inactive
12,Cc1cc([N+](=O)[O-])ccc1NC(=O)CSc1nncn1-c1cccnc1,"inconclusive: 5.62 µM [inhibitor, single point]"
13,CSc1ccc(CCNC(=O)CN2C(=O)COc3ccc(S(=O)(=O)N4CCCCCC4)cc32)cc1,"inconclusive: 35.5 µM [inhibitor, single point]"
14,O=C1CCCc2oc3c(c21)CCCC3,inactive
15,Cc1ccc(Cl)cc1-n1c(SCC(=O)NCc2ccccc2)nc2n[nH]c(C)c2c1=N,"inconclusive: 35.5 µM [inhibitor, single point]"
16,Cc1ccccc1/C(N)=N/O,inactive
17,Cn1cnnc1SC1c2cccc3cccc(c23)C1NS(=O)(=O)c1ccccc1 (stereo unspecified),"inconclusive: 0.708 µM [activator, single point]"
18,COc1ccc(C(=O)N2c3ccccc3C=CC2C#N)cc1 (stereo unspecified),"inconclusive: 15.8 µM [inhibitor, single point]"
19,CN1CCN(c2nc(-c3cccs3)cs2)CC1,inactive
20,CCOc1cc(C(=O)N/N=C/c2ccsc2)cc(OCC)c1OCC,"inconclusive: 15.8 µM [inhibitor, partial curve, poor fit]"
21,CC1CCN(S(=O)(=O)c2cc(C(=O)N3CCN(c4ncccn4)CC3)ccc2Br)CC1,"inconclusive: 28.2 µM [inhibitor, partial curve, poor fit]"
22,Oc1ccc(NCc2ccccc2OCc2ccccc2)cc1,"inconclusive: 12.6 µM [inhibitor, single point] and inconclusive: 35.5 µM [inhibitor, single point]"

# Reference: PubChem BioAssay AID540256 (National Center for Advancing Translational Sciences (NCATS), 2011)
